In the experiment the test system is B6C3F1 mice, intracerebral ependymoblastoma, median survival T/C. The experiment in a line: NCI In Vivo Anticancer Drug Screen. Data for tumor model Ependymoblastoma (intracerebral) in B6C3F1 mice. Particulars: T/C endpoint: median survival time, higher T/C = longer survival. The method, then:
The antitumor activity of compounds was measured in mice bearing transplantable tumors. Survival or tumor size were measured and the results are expressed as the measurement made in the treated group (T) divided by the measurement made in the vehicle treated control group (C). The tumor model used in this assay is Ependymoblastoma (intracerebral) in B6C3F1 mice

Where [1] appears, read: dose: 100.0 mg/kg/injection, schedule: Q01DX005 (ip), vehicle: saline with Tween-80.
The mark [2] stands for this setting: dose: 200.0 mg/kg/injection, schedule: Q01DX005 (ip), vehicle: saline with Tween-80.
Where [3] appears, read: dose: 256.0 mg/kg/injection, schedule: Q01DX001 (ip), vehicle: Klucel (hydroxypropylcellulose) (HPC).
[4] abbreviates: dose: 512.0 mg/kg/injection, schedule: Q01DX001 (ip), vehicle: Klucel (hydroxypropylcellulose) (HPC).
[5] abbreviates: dose: 128.0 mg/kg/injection, schedule: Q01DX001 (ip), vehicle: Klucel (hydroxypropylcellulose) (HPC).
Setting [6] is: dose: 128.0 mg/kg/injection, schedule: Q01DX005 (ip), vehicle: Klucel (hydroxypropylcellulose) (HPC).
Setting [7] is: dose: 256.0 mg/kg/injection, schedule: Q01DX005 (ip), vehicle: Klucel (hydroxypropylcellulose) (HPC).
Where [8] appears, read: dose: 128.0 mg/kg/injection, schedule: Q01DX005 (ip), vehicle: saline.
[9] abbreviates: dose: 16.0 mg/kg/injection, schedule: Q01DX005 (ip), vehicle: saline with Tween-80.
The mark [10] stands for this setting: dose: 256.0 mg/kg/injection, schedule: Q01DX005 (ip), vehicle: saline with Tween-80.
Setting [11] is: dose: 24.0 mg/kg/injection, schedule: Q01DX005 (ip), vehicle: saline with Tween-80.
[12] abbreviates: dose: 64.0 mg/kg/injection, schedule: Q01DX005 (ip), vehicle: saline with Tween-80.
Where [13] appears, read: dose: 256.0 mg/kg/injection, schedule: Q01DX005 (ip), vehicle: saline.
Setting [14] is: dose: 12.5 mg/kg/injection, schedule: Q01DX005 (ip), vehicle: Klucel (hydroxypropylcellulose) (HPC).
Setting [15] is: dose: 1024.0 mg/kg/injection, schedule: Q01DX001 (ip), vehicle: Klucel (hydroxypropylcellulose) (HPC).

The list is a part of this screen's results and no random one: it is rich in T/C values a quarter to a half above the control, in often repeated tests (any T/C) and in doses without a T/C. Further doses and runs are listed elsewhere. T/C: endpoint of the treated group in % of that of the vehicle group. Some entries give survivors of the animals treated and no T/C: the source files T/C as zero there, which appears to mark a toxic dose or a test without result, not a measured value. Some doses without a T/C left all or most animals alive at the check, yet need not have been tolerated: survival well below the control is almost never listed, so the zero probably covers shortened survival too. Counts of survivors are from the toxicity check (mostly the fifth day) where no day follows; animals may have died later. Schedule codes are those of the source, taken here to give the interval after Q, in days (D) or hours (H), and the number of doses after X. Additions like (4×) stand for listed records that agree. Some doses were run more than once; the values are given in rising order. Where survival is the endpoint, the PubChem record calls one and a half times the control and up active, and a quarter to a half above the control has no call in these data; cut-offs in other NCI protocols can differ. Some T/C values carry the count of animals alive at the toxicity check (mostly the fifth day); without a count, all were alive then.

With `O=P1(NCCCl)OCCC(OO)N1CCCl` (stereo not drawn), the T/C is, setting by setting: (dose: 80.0 mg/kg/injection, schedule: Q01DX001 (ip), vehicle: Klucel (hydroxypropylcellulose) (HPC)) 137 % of control; (dose: 160.0 mg/kg/injection, schedule: Q01DX001 (ip), vehicle: Klucel (hydroxypropylcellulose) (HPC)) 125 % of control (2×); (dose: 320.0 mg/kg/injection, schedule: Q01DX001 (ip), vehicle: Klucel (hydroxypropylcellulose) (HPC)) 125 % of control.

For `CCSc1ncnc2c1ncn2C1OC(CO)C(O)C1O` (stereo not drawn), the T/C runs as follows: under setting [1], 127 % of control [9 of 10 alive]; under setting [2], 128 % of control. The survivor count (dose: 400.0 mg/kg/injection, schedule: Q01DX005 (ip), vehicle: saline with Tween-80) is 0 of 10, 1 of 10, 3 of 10.

As to `COc1ccc2c(c1OC(C)=O)-c1cc(OC(C)=O)cc3c1C(C2)N(C(=O)CBr)CC3` (stereo not drawn), under “dose: 100.0 mg/kg/injection, schedule: Q01DX005 (ip), vehicle: saline”, the survivor count is 6 of 10.

For the molecule `Cc1c2ccncc2c(C)c2c1[nH]c1ccccc12`, the T/C under setting [3] was 142 % of control. For the same molecule, the survivor count is, setting by setting: under setting [4], 9 of 10; (dose: 768.0 mg/kg/injection, schedule: Q01DX001 (ip), vehicle: Klucel (hydroxypropylcellulose) (HPC)) 10 of 10.

Take `NC(CSC(c1ccccc1)(c1ccccc1)c1ccccc1)C(=O)O` (stereo not drawn): the T/C by setting is: (dose: 64.0 mg/kg/injection, schedule: Q01DX001 (ip), vehicle: Klucel (hydroxypropylcellulose) (HPC)) 88 [survivors not given], 106 [survivors not given], 107, 107 % of control [survivors not given]; under setting [5], 92 [survivors not given], 101 [survivors not given], 105 [9 of 10 alive], 108 % of control [survivors not given]; under setting [3], 102 [survivors not given], 103 [survivors not given] (2×), 122 % of control. The survivor count under setting [6] is reported as 9 of 10, the survivor count under setting [7] is given as 3 of 10 and the survivor count under setting [4] is listed as 3 of 10.

In the case of `CN=NNc1nc[nH]c1C(N)=O`, the T/C under setting [8] was 138 % of control.

As to `CCC(C)N(C)/N=N/c1nc[nH]c1C(N)=O` (stereo not drawn), under setting [9], the T/C is 143 % of control. The survivor count under setting [10] is listed as 0 of 10.

Turning to `CC(C)(C)N1CC1CNC(=O)C(=O)NCC1CN1C(C)(C)C` (stereo not drawn), the T/C is, setting by setting: (dose: 12.5 mg/kg/injection, schedule: Q01DX005 (ip), vehicle: saline with Tween-80) 127 % of control; under setting [11], 140 % of control. The survivor count under setting [11] was 10 of 10; the survivor count (dose: 25.0 mg/kg/injection, schedule: Q01DX005 (ip), vehicle: saline with Tween-80) was 9 of 10; the survivor count (dose: 50.0 mg/kg/injection, schedule: Q01DX005 (ip), vehicle: saline with Tween-80) is listed as 6 of 10; the survivor count under setting [1] was 0 of 10.

On to `NC(=S)N/N=C/c1ccc(O)cn1`, for which the T/C by setting is: (dose: 24.0 mg/kg/injection, schedule: Q01DX001 (ip), vehicle: saline) 91 [survivors not given], 100 [survivors not given], 101 [survivors not given], 106 % of control [survivors not given]; (dose: 48.0 mg/kg/injection, schedule: Q01DX001 (ip), vehicle: saline) 91 [survivors not given], 93 [survivors not given], 104 [survivors not given], 106 % of control [survivors not given]; (dose: 96.0 mg/kg/injection, schedule: Q01DX001 (ip), vehicle: saline) 87 [survivors not given], 101 [survivors not given], 102 [survivors not given], 111 % of control [survivors not given]; (dose: 192.0 mg/kg/injection, schedule: Q01DX001 (ip), vehicle: saline) 98 [survivors not given], 101 [survivors not given], 102 [survivors not given], 108 % of control [survivors not given].

With `O=C1c2c(O)ccc(O)c2C(=O)c2c(NCCNCCO)ccc(NCCNCCO)c21`, the survivor count is, setting by setting: (dose: 4.0 mg/kg/injection, schedule: Q01DX005 (ip), vehicle: saline with Tween-80) 10 of 10 (2×); (dose: 8.0 mg/kg/injection, schedule: Q01DX005 (ip), vehicle: saline with Tween-80) 5 of 10 and 10 of 10; under setting [9], 6 of 10; (dose: 32.0 mg/kg/injection, schedule: Q01DX005 (ip), vehicle: saline with Tween-80) 2 of 10; under setting [12], 0 of 10.

Turning to `Nc1nc(SCc2ccccc2F)c2ncn(C3OC(CO)C(O)C3O)c2n1` (stereo not drawn), where the note is “dose: 3.12 mg/kg/injection, schedule: Q01DX005 (ip), vehicle: saline with Tween-80”, the T/C is 125 % of control.

For the molecule `CN(Cc1ccccc1)/N=N/c1nc[nH]c1C(N)=O`, the T/C runs as follows: (dose: 32.0 mg/kg/injection, schedule: Q01DX005 (ip), vehicle: saline) 128 % of control; (dose: 64.0 mg/kg/injection, schedule: Q01DX005 (ip), vehicle: saline) 133 % of control; under setting [8], 138 % of control. In addition, the survivor count is, setting by setting: under setting [13], 0 of 10; (dose: 512.0 mg/kg/injection, schedule: Q01DX005 (ip), vehicle: saline) 0 of 10.

Consider `COC1C(O)C(C)OC(OC2C(Oc3cccc4c(O)c5c(=O)oc6ccc(C)c7c(=O)oc(c34)c5c67)OC(C)C(O)C2O)C1O` (stereo not drawn), for which the survivor count is reported as 0 of 10 under setting [10] and 0 of 10 under setting [13].

Turning to `CN(C)N=Nc1ccc(C(=O)O)cc1`, the T/C by setting is: under setting [12], 139 % of control; (dose: 128.0 mg/kg/injection, schedule: Q01DX005 (ip), vehicle: saline with Tween-80) 149 % of control; under setting [2], 133 % of control.

In the case of `CCCC(=O)OCC1OC(n2cnc3c(=S)nc(N)[nH]c32)C(OC(=O)CCC)C1OC(=O)CCC` (stereo not drawn), the T/C under setting [14] is 125 % of control [9 of 10 alive]. For the same molecule, the survivor count under setting [14] is listed as 10 of 10; the survivor count (dose: 25.0 mg/kg/injection, schedule: Q01DX005 (ip), vehicle: Klucel (hydroxypropylcellulose) (HPC)) is recorded as 10 of 10; the survivor count (dose: 50.0 mg/kg/injection, schedule: Q01DX005 (ip), vehicle: Klucel (hydroxypropylcellulose) (HPC)) is on record as 10 of 10; the survivor count (dose: 100.0 mg/kg/injection, schedule: Q01DX005 (ip), vehicle: Klucel (hydroxypropylcellulose) (HPC)) was 10 of 10.

For the molecule `COc1cc2c(c3c1c(=O)c1ccccc1n3C)C=CC(C)(C)O2`, the T/C runs as follows: under setting [5], 103 [survivors not given], 105 [survivors not given], 106 % of control [survivors not given]; under setting [6], 127 % of control; under setting [3], 94 [survivors not given], 101 [survivors not given], 106 % of control [survivors not given]; under setting [4], 92 [survivors not given] and 105 % of control [survivors not given] (2×); (dose: 512.0 mg/kg/injection, schedule: Q01DX005 (ip), vehicle: suspension in saline) 126 % of control; under setting [15], 100 [survivors not given] and 115 % of control [survivors not given]. For the same molecule, the survivor count by setting is: under setting [5], 0 of 10; under setting [3], 0 of 10; under setting [7], 6 of 10; under setting [4], 1 of 10; (dose: 512.0 mg/kg/injection, schedule: Q01DX005 (ip), vehicle: Klucel (hydroxypropylcellulose) (HPC)) 0 of 10; under setting [15], 0 of 10. Moreover, where the note is “dose: 1024.0 mg/kg/injection, schedule: Q01DX005 (ip), vehicle: suspension in saline”, the survivor count is listed as 2 of 10.

The record behind these values is PubChem BioAssay AID226 (DTP/NCI, 2004).
